Measured values reported in patent US7517855B2 (Attenuon, LLC, priority 2002, dated 2009).

What was measured:
[1] = general procedure: Fmoc solid-phase peptide synthesis; Rink Amide AM resin (Novabiochem); HBTU/HOBt/NMM; settings: for isolated yield: whole synthesis; for step yield: late stage modification step
[2] = general procedure: Fmoc solid-phase peptide synthesis; Fmoc-Asn-AM resin; HBTU/HOBt/NMM; settings: whole synthesis, scale 200 mg resin, 0.41 mmol/g
[3] = test system: CD31 positive neo-vessels within the tumor; settings: 50 μg via tail vein, 3LL cells in Matrigel, mice

Substance: Acetyl-Pro-His-Ser-Cys(benzyl)-Asn-NH2
- isolated yield [1]: 97%

Substance: Ac-His-His-Cys(SMe)-Asn-NH2
- isolated mass [2]: 23 mg
- isolated yield [2]: 49.7%

Substance: Acetyl-Pro-His-Ser-Cys(4-MeO-Phenyl)-Asn-NH2
- isolated yield [1]: 50%

Substance: Ac-PHSC(tBu)N-NH2
- isolated yield [1]: 23%

Substance: Ac-Pro-His-Ser-HoCys(SOBn)-Asn-NH2
- step yield [1]: 35.2%

Substance: Ac-Pro-His-Ser-Cys(SO2Bn)-Asn-NH2
- step yield [1]: 68%

Substance: Ac-PHSC(Nicotinoyl)N-NH2
- step yield [1]: 42.0%

Substance: Ac-PFSCNGGK(Biotin)-NH2
- persistence of association with tumor endothelium ([3]; four hours after injection): remains associated to tumor endothelium four hours after injection
- localization of peptide in tumor (anti-biotin / anti-CD31 staining) ([3]; two hours after injection): localized to CD31 positive neo-vessels within the tumor and not with other cells

Substance: Ac-PHS[Met(O2)]N-NH2
- isolated yield [1]: 88%

Substance: Ac-Pro-His-Ser-HoCys(SO2Ph)-Asn-NH2
- step yield [1]: 31.6%

Substance: Ac-His-Ser-Cys(SMe)-Asn-NH2
- isolated mass [2]: 14.1 mg
- isolated yield [2]: 33.4%

Substance: Acetyl-Pro-His-Ser-Cys(methyl)-NH2
- isolated yield [1]: 43%

Substance: Acetyl-Pro-His-Ser-Cys(4-methyl-benzyl)-Asn-NH2
- isolated yield [1]: 99%

Substance: Ac-PHS[Met(O)]N-NH2
- isolated yield [1]: 29%

Non-standard residues stand in square brackets, D forms with d. *: point of attachment. Biotin = O=C1N[C@H]2[C@H](CS[C@H]2CCCCC(=O)*)N1; Met(O2) = CS(=O)(=O)CC[C@H](N)C(=O)O; Met(O) = CS(=O)CC[C@H](N)C(=O)O; Nicotinoyl = O=C(c1cccnc1)*; tBu = CC(C)(C)*
